Results from paper PMC10163288.
Some of the results follow.

B1: il10ra_site1_normal_mot_HHH_b1_08176_000000188_0001_1_20_H_._HHH_b2_01313_af2_0001_0000300007_0000001_0 (protein)
chain: SSSSDQEALELAQRAFRAALRGNIEEAEELAEEALKIAQELNNERLARQIEQLLQALRAEGSSSS
B2: il10ra_site1_sap_20_mot_HHH_b1_03327_000000294_0001_1_19_H_._HHH_b2_05924_af2_0001_0000200004_0000001_0_0001 (protein)
chain: SSSSSDDQEVLEALREAFRLALRGNPEEAEKVLEEAEELAERAGDERLLEMIRNLLETLRSSSSS
B3: il10ra_site1_normal_mot_HHH_b2_05984_000000071_0001_38_52_H_._HHH_b1_05086_0001_0000100005_0000001_0_af2pred_0001 (protein)
chain: SSSSDEEVRRRAREIYEELQRLIEEGDEEEVRRLLEELIELARKGNDREAIRLAARILKLLSSSS
B4: il10ra_site1_sap_22_mot_HHH_b1_01821_000000158_0001_23_39_H_._HHH_b1_07966_af2_0001_0000300009_0000001_0_0001 (protein)
chain: SSSSDEEARHLLKLTLKFARRIQDEEAARFLVRAAQQIAKREGDEELLEEIERLLEELENSSSSS
B5: il10ra_site1_sap_9_mot_HHH_b1_06819_af2_000000053_0001_23_38_H_._5e49283646ac2375ff6560514cd19812_0001_0001_0000100001_0000001_0_0001_af2pred_dldesign_0_af2pred (protein)
chain: SSSSAAEEARAQALYERAVALAKAGKPEEAQEVLQELVDLANEKECLAAAQAANELLKLLSSSSS
B6: il10ra_site1_sap_18_mot_HHH_b2_00800_af2_000000047_0001_1_20_H_._HHH_b2_01695_0001_0000300037_0000002_0_0001 (protein)
chain: SSSSDAKEEAEELLEEAERLIEEGDPREAIRVLARAVALAFEGQDRELLQEIWRLVQELYSSSSS
B7: il10ra_site1_normal_mot_HHH_b1_02397_af2_000000085_0001_39_57_H_._HHH_b2_05327_0001_0000200010_0000002_0 (protein)
chain: SSSSSEEEEELEELLRRIEEAVRRGDPELFARLVQELLRLAFRLSDQEVLQELWELFRRAASSSS
B8: il10ra_site1_normal_mot_HHH_b2_08186_000000021_0001_43_56_H_._HHH_b1_05222_0001_0000100002_0000001_0 (protein)
chain: SSSSSSEEELEELLKRIEEALEEGDPELVRRLLMEAARLAFRLRNPELLQAVWELLELLSSSSSS
B9: il10ra_site1_normal_mot_HHH_b1_05860_000000142_0001_1_19_H_._HHH_b2_01495_0001_0000300030_0000001_0 (protein)
chain: SSSSTEETREAYRLLREAQEALDDGDPEEARELLEEAERLLEEAGNLTVLHNVEYSLQLLDSSSS
B10: il10ra_site1_normal_mot_HHH_b2_01310_000000089_0001_41_55_H_._HHH_b1_07630_af2_0002_0000100002_0000001_0_1_af2pred_0001 (protein)
chain: SSSSDEEELEELIEEIEELIKQGNPEEAIRLLAELVRLALELGDEEVLKIAWRLAKLIKELSSSS
B11: il10ra_site1_sap_16_mot_HHH_b2_02262_af2_000000007_0001_40_53_H_._HHH_b1_07372_0001_0000200031_0000001_1_0001 (protein)
chain: SSSSTQEVAQLMFEALRLLVEGNPEEAEKVLEEAERLAQELNDPELEEYVRILKRFIESQSSSSS
B12: il10ra_site1_normal_mot_HHH_b1_05056_000000217_0001_1_20_H_._HHH_b1_01534_0001_0000100004_0000002_0 (protein)
chain: SSSSSEEVEELLEQARELAEEGDWREATELLQRATQHALRLQDPELLRLVWEVVQEVHELLSSSS
B13: il10ra_site1_normal_mot_513c16ae44941e68898e0f7c259e5a28_0001_1_000000056_0001_35_50_H_._HHH_eva_0741_0001_0000400011_0000001_0 (protein)
chain: SSSSSDEQVRELARAVFRLFEQGALDPRFVEESLEALLELLGDPEVEELLREAKEEAEERSSSSS
B14: il10ra_site1_sap_7_mot_HHH_b2_02315_000000136_0001_19_35_H_._7c653bbcfd290f4ebb70a7ee4eba5725_0001_0001_0000400015_0000001_0_0001 (protein)
chain: SSAEEVWQILVRIYAIAHEQGNEEVREEVRELLALLAEAQANNDEELEEEVKRLAEELAKRVESS
B15: il10ra_site1_sap_21_mot_5d0551e3c4357af680d60aaa850e4cea_0001_1_af2_000000133_0001_18_33_H_._HHH_b2_07683_0001_0000300010_0000002_0_0001_af2pred_dldesign_0_af2p … (protein)
chain: SSSSSPEAKEMAEKTKKYADFLLAAGAPELARRTLENAIHALTQAGDAEGVAELEALLARLSSSS
B16: il10ra_site1_normal_mot_HHH_b2_08144_af2_000000046_0001_38_52_H_._HHH_b2_04130_0001_0000200019_0000001_0 (protein)
chain: SSSSSSTEEAERVWELIRRAQQVSPEEAEELLREAEEIAEEANNELLLIQIEFAARRNSSSSSSS
B17: il10ra_site1_normal_mot_HHH_b1_05056_000000217_0001_1_20_H_._HHH_b2_06881_af2_0001_0000500025_0000001_0 (protein)
chain: SSSSSEEEERVEELLEEAKHIDDPEEAAEVLLEALRLAYELGDEELLREVWEVVKEVVKRLSSSS
B18: il10ra_site1_normal_mot_HHH_b2_05797_000000294_0001_1_19_H_._HHH_b1_02457_0001_0000300030_0000002_0 (protein)
chain: SSSSDEEVRELIEELEELREHVSPELEEYIENTLIFAKALLESGDPEAAERLLRAALQAIRSSSS
B19: il10ra_site1_normal_mot_HHH_b1_06994_000000193_0001_40_55_H_._HHH_b2_02338_af2_0001_0000100002_0000001_0 (protein)
chain: SSSSDQREELLRAAVRLIEQALEFGDERSARFLIFSAELLARELGDEETLEKIEELEKEVNSSSS
B20: il10ra_site1_sap_17_mot_8756ee2cf497b5429c717dfc0c0bcfd6_0001_000000186_0001_1_13_H_._HHH_b1_05891_af2_0001_0000100001_0000001_0_0001_af2pred_0001 (protein)
chain: SSSSDDEKFVRLTIRFARFLLEQGDREAARFFLEVALEIAERINNPELKEEIEELLEEVGSSSSS
B21: il10ra_site1_normal_mot_HHH_b1_03333_000000091_0001_1_17_H_._HHH_b1_04956_af2_0001_0000400014_0000001_0 (protein)
chain: SSSSDRYEEAKRLIERIIRLWEEGDDEEARRLLEELEELAKEAGNPSLEFAVRILEEIIDSSSSS
B22: il10ra_site1_normal_mot_HHH_b1_07256_000000044_0001_1_17_H_._HHH_b2_06732_af2_0001_0000200009_0000001_0 (protein)
chain: SSSSDEEHERALELIRRIARLAFRGDEEEARRLLEELEELVEKLGDPRLEWALRVLELALSSSSS
B23: il10ra_site1_normal_mot_HHH_b2_00984_000000042_0001_1_20_H_._HHH_b2_01628_0001_0000200011_0000001_0 (protein)
chain: SSSSSEEEEVEERVEELLERAKQIEDEEEVAELLLEATQLAIHANDRELLQEVWKVIKELSSSSS
B24: il10ra_site1_normal_mot_HHH_b2_00277_af2_000000172_0001_1_17_H_._HHH_b2_03649_0001_0000500026_0000001_0_af2pred_0001 (protein)
chain: SSSSSDEEFREEVERLLEEAEKIEDPREASYVATRAFALALRGNDPELERLVKEVAQKLASSSSS

biological target: il10ra, Q13651; assay: yeast display titration

Apparent Kd, inactive:
B1 no binding seen, B2 no binding seen, B3 no binding seen, B4 no binding seen, B5 no binding seen, B6 no binding seen, B7 no binding seen, B8 no binding seen, B9 no binding seen, B10 no binding seen, B11 no binding seen, B12 no binding seen, B13 no binding seen, B14 no binding seen, B15 no binding seen, B16 no binding seen, B17 no binding seen, B18 no binding seen, B19 no binding seen, B20 no binding seen, B21 no binding seen, B22 no binding seen, B23 no binding seen, B24 no binding seen
